{"source": "patent US20060100431A1", "about": "“Biologically active compounds” (Amura Therapeutics Limited, priority 2002, published 2006)", "note": "Some results were stated once for a whole list of compounds, not compound by compound. Some compounds share one range, which may span the group rather than tell each member.", "data": [{"target": "T1, human cathepsin K (Homo sapiens, UniProt P43235)", "T1 construct": "Dr. Boris Turk (Josef Stefan Institute, Ljubljana, Slovenia)", "T1 sequence (P43235 115-329)": "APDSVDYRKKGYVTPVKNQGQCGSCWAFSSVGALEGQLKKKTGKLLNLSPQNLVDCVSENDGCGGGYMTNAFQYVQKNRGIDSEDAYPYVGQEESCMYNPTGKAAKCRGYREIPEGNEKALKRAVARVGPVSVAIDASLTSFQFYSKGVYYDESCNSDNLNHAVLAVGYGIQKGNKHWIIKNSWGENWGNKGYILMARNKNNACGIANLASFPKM", "test": "Cathepsin K peptidase activity assay (Ki)", "assay_type": "biochemical", "protocol": "Unless otherwise stated, all general chemicals and biochemicals were purchased from either the Sigma Chemical Company, Poole, Dorset, U.K or from Fisher Scientific UK, Loughborough, Leicestershire, U.K. Absorbance assays were carried out in flat-bottomed 96-well plates (Spectra; Greiner Bio-One Ltd., Stonehouse, Gloucestershire, U.K.) using a SpectraMax PLUS384 plate reader (Molecular Devices, Crawley, U.K.). […] Fluorescence assays were monitored using a SpectraMax Gemini fluorescence plate reader (Molecular Devices). For substrates employing either a 7-amino-4-methylcoumarin (AMC) or a 7-amino-4-trifluoromethylcoumarin (AFC) fluorophore, assays were monitored at an excitation wavelength of 365 nm and an emission wavelength of 450 nm and the fluorescence plate reader calibrated with AMC. For substrates employing a 3-amino-benzoyl (Abz) fluorophore, assays were monitored at an excitation wavelength of 310 nm and an emission wavelength of 445 nm; the fluorescence plate reader calibrated with 3-amino-benzamide (Fluka). Unless otherwise indicated, all the peptidase substrates were purchased from Bachem UK, St Helens, Merseyside, UK. […] Hydroxyethylpiperazine ethanesulfonate (HEPES), tris-hydroxylmethyl aminomethane (tris) base, bis-tris-propane and all the biological detergents (e.g. CHAPS, zwittergents, etc.) were purchased from CN Biosciences UK, Beeston, Nottinghamshire, U.K. Glycerol was purchased from Amersham Pharmacia Biotech, Little Chalfont, Buckinghamshire, U.K. Stock solutions of substrate or inhibitor were made up to 10 mM in 100% dimethylsulfoxide (DMSO) (Rathburns, Glasgow, U.K.) and diluted as appropriately required. In all cases the DMSO concentration in the assays was maintained at less than 1% (vol./vol.).\nEnzyme was added as required to initiate the reaction and the activity, as judged by the change in fluorescence upon conversion of substrate to product, was monitored over time. All assays were carried out at 25±1° C.\nBovine cathepsin S, human cathepsin L, human cathepsin H and human cathepsin B were obtained from CN Biosciences. Recombinant human cathepsin S, human cathepsin K and human cathepsin X were obtained from Dr. Boris Turk (Josef Stefan Institute, Ljubljana, Slovenia). Unless otherwise stated, all peptidase activity assays were carried out in 10 mM bis-tris-propane (BTP), pH 6.5 containing 1 mM EDTA, 5 mM 2-mercaptoethanol and 1 mM CaCl2.\nThe apparent inhibition constant (Ki) for each compound was determined on the basis that inhibition was reversible and occurred by a pure-competitive mechanism. […] [formula]\n[formula] Ki^app=Ki(1+[So]/KM^app) (4)\nCurves were fitted by non-linear regression analysis (Prism) using a fixed value for the enzyme concentration.", "units": {"Ki, inhibitors of cathepsin K": "nM"}, "values": [{"smiles": "CC(C)C[C@H](NC(=O)c1ccc(C(C)(C)C)cc1)C(=O)N1CC[C@@H]2[C@H]1C(=O)CN2C(=O)Nc1ccccc1", "note": "[Example 190, (3aS,6aR)-4-(2S-2-(4-tert-Butyl-benzoylamino)-4-methyl-pentanoyl]-3-oxo-hexahydro-pyrrolo[3,2-b]pyrrole-1-carboxylic acid phenylamide]", "Ki, inhibitors of cathepsin K": "1 to 5000"}, {"smiles": "CC(C)C[C@H](NC(=O)c1ccc(C(C)(C)C)cc1)C(=O)N1CC[C@@H]2[C@H]1C(=O)CN2C(=O)c1ccc(-c2ccccc2)s1", "note": "[Example 28, (3aR,6aS)-4-tert-Butyl-N-{(1S)-3-methyl-1-[6-oxo-4-(5-phenyl-thiophene-2-carbonyl)-hexahydro-pyrrolo[3,2-b]pyrrole-1-carbonyl]-butyl}-benzamide]", "Ki, inhibitors of cathepsin K": "1 to 5000"}, {"smiles": "CC(C)C[C@H](NC(=O)c1ccc(N(C)C)cc1)C(=O)N1CC[C@@H]2[C@H]1C(=O)CN2C(=O)c1ccncc1", "note": "[Example 82, (3aR,6aS)-4-Dimethylamino-N-{(1S)-3-methyl-1-[6-oxo-4-(pyridinecarbonyl)-hexahydro-pyrrolo[3,2-b]pyrrole-1-carbonyl]-butyl}-benzamide]", "Ki, inhibitors of cathepsin K": "1 to 5000"}, {"smiles": "CC[C@H](NC(=O)OCc1ccccc1)C(=O)N1CC(=O)[C@@H]2[C@H]1CCN2C(=O)[C@H](CC(C)C)NC(=O)c1ccc(N(C)C)cc1", "note": "[Example 159, (3aS,6aR)-((1S)-1-{4-[(2S)-2-(4-Dimethylamino-benzoylamino)-4-methyl-pentanoyl]-3-oxo-hexahydro-pyrrolo[3,2-b]pyrrole-1-carbonyl}-propyl)-carbamic acid benzyl ester]", "Ki, inhibitors of cathepsin K": "1 to 5000"}, {"smiles": "CCCCCCC(=O)N1CC(=O)[C@@H]2[C@H]1CCN2C(=O)[C@H](CC(C)C)NC(=O)c1ccc(N(C)C)cc1", "note": "[Example 136, (3aR,6aS)-4-Dimethylamino-N-[(1S)-1-(4-heptanoyl-6-oxo-hexahydro-pyrrolo[3,2-b]pyrrole-1-carbonyl)-3-methyl-butyl]-benzamide]", "Ki, inhibitors of cathepsin K": "1 to 5000"}, {"smiles": "CC(C)C[C@H](NC(=O)c1ccc(Oc2ccccc2)cc1)C(=O)N1CC[C@@H]2[C@H]1C(=O)CN2C(=O)c1cccc(S(C)(=O)=O)c1", "note": "[Example 41, (3aR,6aS)-N-{(1S)-1-[4-(3-Methanesulfonyl-benzoyl)-6-oxo-hexahydro-pyrrolo[3,2-b]pyrrole-1-carbonyl]-3-methyl-butyl}-4-phenoxy-benzamide]", "Ki, inhibitors of cathepsin K": "1 to 5000"}, {"smiles": "CC(C)C[C@H](NC(=O)c1ccc(N(C)C)cc1)C(=O)N1CC[C@@H]2[C@H]1C(=O)CN2C(=O)c1ccc(F)cc1", "note": "[Example 57, (3aR,6aS)-4-Dimethylamino-N-{(1S)-1-[4-(4-fluoro-benzoyl)-6-oxo-hexahydro-pyrrolo[3,2-b]pyrrole-1-carbonyl]-3-methyl-butyl}-benzamide]", "Ki, inhibitors of cathepsin K": "1 to 5000"}, {"smiles": "CCCC(=O)N1CC(=O)[C@@H]2[C@H]1CCN2C(=O)[C@H](CC(C)C)NC(=O)c1ccc(N(C)C)cc1", "note": "[Example 127, (3aR,6aS)-N-[(1S)-1-(4-Butyryl-6-oxo-hexahydro-pyrrolo[3,2-b]pyrrole-1-carbonyl)-3-methyl-butyl]-4-dimethylamino-benzamide]", "Ki, inhibitors of cathepsin K": "1 to 5000"}, {"smiles": "CC(C)C[C@H](NC(=O)c1ccc(N2CCCC2)cc1)C(=O)N1CC[C@@H]2[C@H]1C(=O)CN2C(=O)c1ccccc1", "note": "[Example 193, (3aR,6aS)-N-[(1S)-1-(4-Benzoyl-6-oxo-hexahydro-pyrrolo[3,2-b]pyrrole-1-carbonyl)-3-methyl-butyl]-4-pyrrolidin-1-yl-benzamide]", "Ki, inhibitors of cathepsin K": "1 to 5000"}, {"smiles": "CC(C)C[C@H](NC(=O)c1ccc(N(C)C)cc1)C(=O)N1CC[C@@H]2[C@H]1C(=O)CN2C(=O)[C@@H](N)[C@@H](C)O", "note": "[Example 207, (3aR,6aS)-N-{(1S)-1-[4-((2S,3R)-2-Amino-3-hydroxy-butyryl)-6-oxo-hexahydro-pyrrolo[3,2-b]pyrrole-1-carbonyl]-3-methyl-butyl}-4-dimethylamino-benzamide]", "Ki, inhibitors of cathepsin K": "1 to 5000"}, {"smiles": "CC(C)C[C@H](NC(=O)c1ccc(C(C)(C)C)cc1)C(=O)N1CC[C@@H]2[C@H]1C(=O)CN2C(=O)c1ccc2c(c1)OCCO2", "note": "[Example 30, (3aR,6aS)-4-tert-Butyl-N-{(1S)-1-[4-(2,3-dihydro-benzo[1,4]dioxine-6-carbonyl)-6-oxo-hexahydro-pyrrolo[3,2-b]pyrrole-1-carbonyl]-3-methyl-butyl}-benzamide]", "Ki, inhibitors of cathepsin K": "1 to 5000"}, {"smiles": "CC(C)C[C@H](NC(=O)c1ccc(N(C)C)cc1)C(=O)N1CC[C@@H]2[C@H]1C(=O)CN2C(=O)[C@H](C)NC(=O)OCc1ccccc1", "note": "[Example 145, (3aS,6aR)-((1S)-2-{4-[(2S)-2-(4-Dimethylamino-benzoylamino)-4-methyl-pentanoyl]-3-oxo-hexahydro-pyrrolo[3,2-b]pyrrole-1-yl}-1-methyl-2-oxo-ethyl)-carbamic acid benzyl ester]", "Ki, inhibitors of cathepsin K": "1 to 5000"}, {"smiles": "CC(C)C[C@@H](N)C(=O)N1CC(=O)[C@@H]2[C@H]1CCN2C(=O)[C@H](CC(C)C)NC(=O)c1ccc(N(C)C)cc1", "note": "[Example 152, (3aR,6aS)-N-{(1S)-1-[4-((2R)-2-Amino-4-methyl-pentanoyl)-6-oxo-hexahydro-pyrrolo[3,2-b]pyrrole-1-carbonyl]-3-methyl-butyl}-4-dimethylamino-benzamide]", "Ki, inhibitors of cathepsin K": "1 to 5000"}, {"smiles": "CC(C)C[C@H](NC(=O)c1cccc(N2CCNCC2)c1)C(=O)N1CC[C@@H]2[C@H]1C(=O)CN2C(=O)c1ccccc1", "note": "[Example 247, (3aR,6aS)-N-[(1S)-1-(4-Benzoyl-6-oxo-hexahydro-pyrrolo[3,2-b]pyrrole-1-carbonyl)-3-methyl-butyl]-3-piperazin-1-yl-benzamide]", "Ki, inhibitors of cathepsin K": "1 to 5000"}, {"smiles": "CC[C@H](NC(C)=O)C(=O)N1CC(=O)[C@@H]2[C@H]1CCN2C(=O)[C@H](CC(C)C)NC(=O)c1ccc(N(C)C)cc1", "note": "[Example 204, (3aR,6aS)-N-{(1S)-1-[4-((2S)-2-Acetylamino-butyryl)-6-oxo-hexahydro-pyrrolo[3,2-b]pyrrole-1-carbonyl]-3-methyl-butyl}-4-dimethylamino-benzamide]", "Ki, inhibitors of cathepsin K": "1 to 5000"}, {"smiles": "CC(C)C[C@H](NC(=O)c1ccc(-c2cccs2)cc1)C(=O)N1CC[C@@H]2[C@H]1C(=O)CN2C(=O)c1ccccc1", "note": "[Example 2, (3aR,6aS)-N-[(1S)-1-(4-Benzoyl-6-oxo-hexahydro-pyrrolo[3,2-b]pyrrole-1-carbonyl)-3-methyl-butyl]-4-thiophen-2-yl-benzamide]", "Ki, inhibitors of cathepsin K": "1 to 5000"}, {"smiles": "CCCCC(=O)N1CC(=O)[C@@H]2[C@H]1CCN2C(=O)[C@H](CC(C)C)NC(=O)c1ccc(N(C)C)cc1", "note": "[Example 128, (3aR,6aS)-4-Dimethylamino-N-[(1S)-3-methyl-1-(6-oxo-4-pentanoyl-hexahydro-pyrrolo[3,2-b]pyrrole-1-carbonyl)-butyl]-benzamide]", "Ki, inhibitors of cathepsin K": "1 to 5000"}, {"smiles": "CC(C)C[C@H](NC(=O)c1ccc(N(C)C)cc1)C(=O)N1CC[C@@H]2[C@H]1C(=O)CN2C(=O)c1ccccc1[N+](=O)[O-]", "note": "[Example 45, (3aR,6aS)-4-Dimethylamino-N-{(1S)-3-methyl-1-[4-(2-nitro-benzoyl)-6-oxo-hexahydro-pyrrolo[3,2-b]pyrrole-1-carbonyl]-butyl}-benzamide]", "Ki, inhibitors of cathepsin K": "1 to 5000"}, {"smiles": "CC(C)C[C@H](NC(=O)c1ccc(C(C)(C)C)cc1)C(=O)N1CC[C@@H]2[C@H]1C(=O)CN2C(=O)C1COc2ccccc2O1", "note": "(stereo partly drawn) [Example 29, (3aR,6aS)-4-tert-Butyl-N-{(1S)-1-[4-(2,3-dihydrobenzo[1,4]dioxine-2-carbonyl)-6-oxo-hexahydro-pyrrolo[3,2-b]pyrrole-1-carbonyl]-3-methyl-butyl}-benzamide]", "Ki, inhibitors of cathepsin K": "1 to 5000"}, {"smiles": "CC(C)C[C@H](NC(=O)c1ccc(N(C)C)cc1)C(=O)N1CC[C@@H]2[C@H]1C(=O)CN2C(=O)C12CC3CC(CC(C3)C1)C2", "note": "[Example 48, (3aR,6aS)-N-{(1S)-1-[4-(Adamantane-1-carbonyl)-6-oxo-hexahydro-pyrrolo[3,2-b]pyrrole-1-carbonyl]-3-methyl-butyl}-4-dimethylamino-benzamide]", "Ki, inhibitors of cathepsin K": "1 to 5000"}]}]}
